# Values of other authors, collected in patent US8951756B2, “Alkaline feed” (Hoffmann-La Roche Inc., priority 2010, dated 2015).
# Some results were stated once for a whole list of compounds, not compound by compound.
# Details: in water, temperature not given in the sentence; cited from earlier work
row,SMILES,solubility
1,CC(C)C[C@H](N)C(=O)O [leucine],below 50 g/l
2,NC(=O)CC[C@H](N)C(=O)O [glutamine],below 50 g/l
3,N[C@@H](Cc1ccccc1)C(=O)O [phenylalanine],below 50 g/l
4,N[C@@H](Cc1c[nH]c2ccccc12)C(=O)O [tryptophane],below 50 g/l
